1 sequence from patent US20020086017, “GA binding protein and neurite derived growth factors for use in the treatment of muscular dystrophy” (published 2002) can be followed below.

The test system of the series is GABP-alpha/GABP-beta (endogenous, L6 myotube nuclear extract). In words: pull-down. To be noted: 58 and 43 kDa proteins eluted with 2 M KCl, identified by immunoblot; protein in an extract; variant of UtroNBox probe. For orientation: In western blotting, separated proteins are transferred to a membrane and probed.

For at least one entry, the source does not settle the construct or the ends of the probe. Where cells or extracts were used, other partners may take part.

For “ATCTTCCGGAAC (double strand) [UtroNBox coupled to magnetic particles]”, the binding result is given as “binds”.
